A short description of the series: Kinetic analysis of purified dehydrogenases with succinatesemialdehyde and NADPH. The series is classed as biochemical. The note with it: purified proteins. Here is the method: Cultures were grown at 37° C. for 5 h and then were transferred to 100 mL of LB liquid media containing ampicillin (100 μg/mL). These were grown overnight at room temperature. The next morning, 50 mL of each culture was transferred to 1 L of LB and grown at room temperature until the OD600 nm reached 0.8. IPTG was added to the cultures to a concentration of 0.4 mM and cultures were grown for an additional 4 h at room temperature. The cultures were then centrifuged at 10,000× g for 15 min, the supernatant was decanted and the resulting pellet was resuspended in 10 mL of breakage buffer (100 mM HEPES, pH 7.2; 10 % glycerol; 1 mM AEBSF; 1 μg/mL leupeptin; and 1 μg/mL pepstatin). Cells were broken by passage two times through a french press and the resulting extract was centrifuged at 16,000× g for 15 min at 4° C. […] All fractions were analyzed by SDS-PAGE.
All proteins eluted at around 120 mM immidazole. […] Under these conditions, the kinetic parameters for the Arabidopsis dehydrogenase (kcat=1290 min-1, KM=4 mM) and the Tulip dehydrogenase (kcat=1200 min^−1, KM=3 mM) were determined. The ablility of each enzyme to reduce to α-methylenesuccinatesemialdehyde to α-methylene-γ-hydroxybutyrate was assessed in a coupled assay. […] Compounds were detected with a Waters 9600 PDA detector. […]

pH optimum data for two molecules are collected here from patent US20030170653A1, “Biological method for the production of tuliposide A and its intermediates” (priority 2001, published 2003).

B1: GHBD2: γ-hydroxybutyrate dehydrogenase homolog from Arabidopsis (SEQ ID NO: 16), expressed from pTrcAds (protein)
chain: MEVGFLGLGIMGKAMSMNLLKNGFKVTVWNRTLSKCDELVEHGASVCESPAEVIKKCKYTIAMLSDPCAALSVVFDKGGVLEQICEGKGYIDMSTVDAETSLKINEAITGKGGRFVEGPVSGSKKPAEDGQLIILAAGDKALFEESIPAFDVLGKRSFYLGQVGNGAKMKLIVNMIMGSMMNAFSEGLVLADKSGLSSDTLLDILDLGAMTNPMFKGKGPSMNKSSYPPAFPLKHQQKDMRLALALGDENAVSMPVAAAANEAFKKARSLGLGDLDFSAVIEAVKFSRE
modifications: Arabidopsis
The molecule B1 registered a pH optimum of roughly 7.0.

B2: GHBD1: γ-hydroxybutyrate dehydrogenase homolog from tulip pistil (SEQ ID NO: 14), expressed from pTrcEtp (protein)
chain: MEVGFLGLGIMGKAMAVNLLRSGFRVTVWNRTLSKCNELLEQGASVGETPAAVIKKCKYTIAMLSDPSAALSVVFDKDGVLEHMSSGKGYIDMSTVDAVTSSKISEAITQKGGHFLEAPVSGSKKPAEDGQLVILAAGEKALYEEIIPAFEVLGKKSFFLGQVGNGANMKLIVNMIMGSMMNALSEGLSLAGKSGLEQKTLLDVLDLGAIANPMFKLKGPAMIQNNHPPAFPLKHQQKDMRLALALGDENAVSMPVAAAANEAFKKARSLGLGDLDFSAVYEVLKYGDAS
modifications: tulip pistil
In turn, B2 registered a pH optimum of roughly 7.0.
